PubChem BioAssay AID504786 | Drosophila RNAi Screening Center | 2011
In all, the deposit lists about 21,000 reagents; shown is an unselected part of those with a known target gene and a result. 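Primary screen; positive scores mean lost reporter signal, so the sign may be inverted from the usual convention.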 The numbers tell different reagents against one gene apart. A plus sign joins genes that one reagent is predicted to hit. Not all columns of the deposit are shown. No sequences are given here.

Test: 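Knock-downs reducing HIF reporter induction by the iron chelator DFO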 (primary screen)
Cell system: Drosophila S2 cells with a stable HIF luciferase reporter
Knock-down reagent: long dsRNA against Drosophila genes, about 0.2 µg dsRNA per well of a 384-well plate
Timing: three days of knock-down, then 20 h of DFO before reading
Conditions: desferrioxamine (DFO) at 100 µM, an iron chelator that mimics hypoxia, for 20 h
Detection: 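HIF reporter luminescence in cells given 100 µM DFO for 20 h, using the mouse ldh-a hypoxia-response element, scored as per-plate z-scores; higher means greater loss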
Scale: z-score: higher = stronger loss of HIF reporter signal

{"gene": "Rdh (GeneID 2769007)", "reagent": 1, "z-score, replicate 1": -0.2}
{"gene": "Rdh (GeneID 2769007)", "reagent": 2, "z-score, replicate 1": 0.8}
{"gene": "CG44433 (GeneID 37150)", "reagent": 1, "z-score, replicate 1": -0.4}
{"gene": "CG44433 (GeneID 37150)", "reagent": 2, "z-score, replicate 1": -0.3}
{"gene": "c(2)M (GeneID 34964)", "reagent": 1, "z-score, replicate 1": -0.3}
{"gene": "Larp7 (GeneID 44900)", "reagent": 1, "z-score, replicate 1": 0.8}
{"gene": "Arpc1 (GeneID 34793)", "reagent": 1, "z-score, replicate 1": 0.4}
{"gene": "spirit (GeneID 31797)", "reagent": 1, "z-score, replicate 1": -0.3}
{"gene": "Gbp2 (GeneID 36937)", "reagent": 1, "z-score, replicate 1": -0.1}
{"gene": "Polr1F (GeneID 33963)", "reagent": 1, "z-score, replicate 1": 0.1}
{"gene": "CG9132 (GeneID 2768881)", "reagent": 1, "z-score, replicate 1": -0.1}
{"gene": "CG17264 (GeneID 33511)", "reagent": 1, "z-score, replicate 1": -0.3}
{"gene": "CG9626 (GeneID 40979)", "reagent": 1, "z-score, replicate 1": -0.3}
{"gene": "Cyp4ad1 (GeneID 35821)", "reagent": 1, "z-score, replicate 1": -0.4}
{"gene": "CG1105 (GeneID 40841)", "reagent": 1, "z-score, replicate 1": -0.4}
{"gene": "RPA3 (GeneID 32113)", "reagent": 1, "z-score, replicate 1": -0.2}
{"gene": "CG30492 (retired record) + M7BP", "reagent": 1, "z-score, replicate 1": -0.2}
{"gene": "CG30492 (retired record) + M7BP", "reagent": 2, "z-score, replicate 1": -0.4}
{"gene": "CG30492 (retired record) + M7BP", "reagent": 3, "z-score, replicate 1": 0}
{"gene": "CG30492 (retired record) + M7BP", "reagent": 4, "z-score, replicate 1": -0.3}
{"gene": "CG30492 (retired record) + M7BP", "reagent": 5, "z-score, replicate 1": -0.3}
{"gene": "CG6739 (GeneID 34037)", "reagent": 1, "z-score, replicate 1": 0.1}
{"gene": "CG32199 (GeneID 40028)", "reagent": 1, "z-score, replicate 1": -0.2}
{"gene": "CG13438 (GeneID 37348)", "reagent": 1, "z-score, replicate 1": -0.4}
{"gene": "eco (GeneID 38812)", "reagent": 1, "z-score, replicate 1": -0.3}
{"gene": "CG14306 (retired record) (GeneID 42231)", "reagent": 1, "z-score, replicate 1": -0.9}
{"gene": "dpr8 (GeneID 32387)", "reagent": 1, "z-score, replicate 1": -0.3}
{"gene": "dpr8 (GeneID 32387)", "reagent": 2, "z-score, replicate 1": -0.4}
{"gene": "dpr8 (GeneID 32387)", "reagent": 3, "z-score, replicate 1": -0.4}
{"gene": "dpr8 (GeneID 32387)", "reagent": 4, "z-score, replicate 1": -0.4}
{"gene": "epsilonTry (GeneID 49080)", "reagent": 1, "z-score, replicate 1": -0.1}
{"gene": "CG6709 + Hez", "reagent": 1, "z-score, replicate 1": -0.2}
{"gene": "CG6709 + Hez", "reagent": 2, "z-score, replicate 1": -0.3}
{"gene": "Nin (GeneID 33757)", "reagent": 1, "z-score, replicate 1": -0.2}
{"gene": "Dgk (GeneID 35738)", "reagent": 1, "z-score, replicate 1": 0}
{"gene": "Dgk (GeneID 35738)", "reagent": 2, "z-score, replicate 1": 0}
{"gene": "Dgk (GeneID 35738)", "reagent": 3, "z-score, replicate 1": -0.2}
{"gene": "Dgk (GeneID 35738)", "reagent": 4, "z-score, replicate 1": 0}
{"gene": "tapas (GeneID 37304)", "reagent": 1, "z-score, replicate 1": -0.2}
{"gene": "CG33325 (GeneID 2768664)", "reagent": 1, "z-score, replicate 1": -0.3}
{"gene": "CG12115 (GeneID 31853)", "reagent": 1, "z-score, replicate 1": -0.2}
{"gene": "ECSIT (GeneID 40732)", "reagent": 1, "z-score, replicate 1": -0.1}
{"gene": "Mitofilin (GeneID 42587)", "reagent": 1, "z-score, replicate 1": 0}
{"gene": "CG11267 (GeneID 39476)", "reagent": 1, "z-score, replicate 1": -0.3}
{"gene": "CG14803 (GeneID 31142)", "reagent": 1, "z-score, replicate 1": -0.2}
{"gene": "Osi9 (GeneID 40763)", "reagent": 1, "z-score, replicate 1": -0.4}
{"gene": "Srp14 (GeneID 42436)", "reagent": 1, "z-score, replicate 1": 0.1}
{"gene": "CG30158 (GeneID 50149)", "reagent": 1, "z-score, replicate 1": -0.2}
{"gene": "CG30158 (GeneID 50149)", "reagent": 2, "z-score, replicate 1": -0.2}
{"gene": "CG30158 (GeneID 50149)", "reagent": 3, "z-score, replicate 1": -0.3}
{"gene": "CG30158 (GeneID 50149)", "reagent": 4, "z-score, replicate 1": -0.2}

In a second layout: entries from further up
{"gene":"CG6739 (GeneID 34037)","reagent":1,"z-score, replicate 1":0.1}
{"gene":"CG32199 (GeneID 40028)","reagent":1,"z-score, replicate 1":-0.2}
{"gene":"CG13438 (GeneID 37348)","reagent":1,"z-score, replicate 1":-0.4}
{"gene":"eco (GeneID 38812)","reagent":1,"z-score, replicate 1":-0.3}
{"gene":"CG14306 (retired record) (GeneID 42231)","reagent":1,"z-score, replicate 1":-0.9}
{"gene":"dpr8 (GeneID 32387)","reagent":1,"z-score, replicate 1":-0.3}
